From PubChem BioAssay AID1296 (Columbia University Molecular Screening Center, 2008)
Out of some 130,000 compounds screened, about 1,000 (0.77%) were called active. Inconclusive results, whose numbers are uncertain, are shown with a selection of clear calls.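 How the source made its calls: active means activation at 2 µM above a set limit, confirmed on inspection of the cell images; inconclusive means above the set limit but not confirmed on image inspection; inactive means the rest.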

Assay: activators of insulin promoter-driven GFP, primary screen, imaging, TRM-6 cells (human fetal islet line), eGFP reporter, cell count (AID 1296;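 further: share of cells whose green reporter signal exceeds an intensity cutoff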)
Conditions: at 2 µM, active compounds read high, plate-scaled: unstimulated 0, stimulated control 100
In short: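 Test system: TRM-6 insulin promoter–eGFP reporter cells / Quantity: 1,000 cells per well / Reagent: tamoxifen inducer, 0.75 µM, in seeding medium / Compound dosing: 2 µM final, single concentration / Schedule: overnight tamoxifen, then two-day compound incubation at 37 °C / Measured by: automated fluorescence imaging of paraformaldehyde-fixed, Hoechst-counterstained cells, green channel / Read-out: percent activation from GFP-positive cell fraction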

Structure (SMILES)	activation
CCC(=O)Nc1ccc(C(=O)Nc2cccc(OC)c2)cc1	inconclusive: 493%
CC(=O)CSc1ncnc2sc3c(c12)CCCC3	inconclusive: 182%
O=C(NC1CCCCC1)N1CCN(C(=O)c2ccco2)CC1	inactive: 0%
N#Cc1cc2c(nc1SCC(=O)N1CCCCC1)CCCC2	inconclusive: 75%
CCOC(=O)c1c(NC(C)=O)sc2c1CCC(C=O)=C2Sc1ccccc1	inconclusive: 114%
COc1cc2c(O)c3c(c(-c4ccc5c(c4)OCO5)c2cc1OC)C(=O)OC3	inconclusive: 127% [cytotoxic]
C=C(C)Cn1c(-c2ccncc2)n[nH]c1=S	inactive: 0%
CCNc1nc(NC(C)C)nc(N2CC(=O)N(CC(=O)OCC)C2=N)n1	active: 344%
CCOC(=O)c1c(-c2ccc(Cl)cc2)c(C#N)c(=O)n(N)c1N	inactive: 9.38%
O=C(Nc1ccc(Br)cn1)c1ccc([N+](=O)[O-])o1	inconclusive: 76.5%
COc1cc(OC)cc(C(=O)OCc2cc3ccccc3[nH]c2=O)c1	inactive: -71.4%
O=C(NC1CCCCCC1)c1ccc(OCC2CCCO2)cc1 (stereo not given)	inconclusive: 488%
CC(=O)Nc1cc(OC(C)=O)c2nonc2c1OC(C)=O	inconclusive: 614% [cytotoxic]
O=C(Oc1ccc(N(Cc2cccs2)C2=NS(=O)(=O)c3ccccc32)cc1)c1ccco1	inconclusive: 520%
CCN(CC(=O)Nc1ccccc1OC)CC(=O)Nc1c(Cl)ccc(C)c1Cl	inactive: 0%
c1ccc(-c2nnc(-c3cccc(-c4nnc(-c5ccccc5)o4)c3)o2)cc1	inactive: 110%
COc1cccc2c1N1C(=O)c3c(C(=O)O)cccc3C1CC2(C)C (stereo not given)	inactive: 0%
CC(C)CNS(=O)(=O)c1ccc(CCC(=O)N2CCN(Cc3ccc4c(c3)OCO4)CC2)cc1	active: 469%
CCOc1ccc(-n2c(N)c(C(=O)NCc3ccco3)c3nc4ccccc4nc32)cc1	inconclusive: 151%
CSc1nsc(SC)c1NC(=O)OC1CCCCC1	inconclusive: 480%
CCCC(c1nnnn1C1CCCC1)N1CCN(C(=O)c2ccco2)CC1 (stereo not given)	active: 181%
O=Cc1ccc(N2CCCC2)c(F)c1	inconclusive: 96.4%
CCCCn1c(-c2nn(C)cc2Cl)n[nH]c1=S	inconclusive: 80%
CCCCCOc1ccc(Br)cc1/C(C)=N/NC1=NCCN1	inconclusive: 608%

Structure (SMILES)	activation
CCS(=O)(=O)NC(C)C(c1cccs1)N1CCN(c2ccc(OC)cc2)CC1 (stereo not given)	inconclusive: 167%
Cc1c(C(=O)N2CCOCC2)[nH]c2ccc(OCc3ccccc3)cc12	active: 104%
CCc1cc2c(NCC3CCCO3)nc(C)nc2s1 (stereo not given)	inconclusive: 462%
COc1ccc(NCC(=O)Nc2ccc(Cl)cc2C)c(OC)c1	inconclusive: 82.9%
CC1CCN(C(=S)c2ccccc2O)CC1	inconclusive: 44.6%
C=CCNCC(=O)NN=C(c1ccccc1)c1ccccc1	inactive: 3.23%
Cc1cc(C)nc(N/N=C/c2ccc3c(c2)OCCO3)n1	inactive: 6.67%
O=C(Nc1ccc(N=Nc2ccccc2)cc1)c1ccc(Cl)cc1Cl	inconclusive: 196%
COc1ccccc1C(=O)N1CCN=C1c1ccccc1	inconclusive: 406%
O=C(Nc1ccccc1)C1=C(c2ccccc2)S(=O)(=O)CCS1(=O)=O	inconclusive: 257% [cytotoxic]
COc1cccc(C(C(=O)NC2CCCC2)N(Cc2ccc(C)cc2)C(=O)c2ccco2)c1OC (stereo not given)	inconclusive: 446%
CCc1ccccc1NC(=O)CN(C)C(=O)Cn1ncc(Cl)c(Cl)c1=O	inconclusive: 223% [cytotoxic]
N/C(Cc1cccs1)=N\OC(=O)COc1ccc(Br)cc1Cl	inconclusive: 77.1%
CCN(CCNC(=O)C1CCC(=O)N1Cc1ccc(C)cc1)c1ccccc1 (stereo not given)	inactive: 0%
CCOC(=O)N1CCN(CC(O)COC2CC(C)CCC2C(C)C)CC1 (stereo not given)	inconclusive: 400%
CCN(c1ccccc1)S(=O)(=O)c1ccc(C(=O)NCCCn2ccnc2)cc1	inactive: 9.09%
CCCCN1C(=O)/C(=C/C=C2\SCCN2C)SC1=S	active: 408%
O=C(NCc1ccc2c(c1)OCO2)c1nn2cccnc2c1Cl	inconclusive: 538%
CC(C)c1ccc(/C=N/NC(=O)c2cccc(Cl)c2)cc1	active: 517%
COc1ccc(Nc2nc(Cl)c(C=O)s2)cc1	inconclusive: 427%
CCNC(=O)Cn1cc(C#N)c2ccccc21	inconclusive: 425%
O=C(Nc1cccc(C2OCCCO2)c1)c1cccs1	inconclusive: 250%
COc1ccc(/C=N/NC(=O)c2ccoc2C)cc1COc1ccc(Cl)cc1	inconclusive: 525%
C=CCN1C(=O)C2(NNc3ccccc3O2)c2ccccc21 (stereo not given)	inconclusive: 103%

Structure (SMILES)	activation
O=C(NN1CCOCC1)c1ccc(S(=O)(=O)N2CCCCC2)cc1	inactive: -5.88%
CC1CCN(c2ccc(NC(=O)c3cccnc3)cc2)CC1	inconclusive: 425%
CCc1ccc(NC(=O)c2ccc3c(c2)C(=O)N(CCOC)C3Nc2ccc(CC)cc2)cc1 (stereo not given)	inactive: 0%
Cc1cccc(NC(=O)Cn2cnc3c(oc4nc5c(cc43)COC(C)(C)C5)c2=O)c1	inactive: 0%
Cc1cccc(N(C2C=CS(=O)(=O)C2)S(=O)(=O)c2ccccc2)c1 (stereo not given)	inconclusive: 406%
Cc1[nH]nc2c1C(c1ccc(F)cc1)C1=C(CC(C)(C)CC1=O)N2 (stereo not given)	inconclusive: 425%
COc1ccc(C(N)=S)c(OC)c1	inactive: -3.7%
COc1cc(NC(=O)C/C(C)=N/NC(=O)c2cccc(O)c2)c(OC)cc1Cl	inactive: -7.14%
COc1ccc2oc(=O)c(C(=O)N3CCN(c4ccc(F)cc4)CC3)cc2c1	inconclusive: 412%
CCOc1ccc(CCNC(=O)CSc2nnnn2C)cc1OCC	inconclusive: 100%
O=C(CN1CCN(Cc2ccc(F)cc2)C1=O)NC1CCCC1	inconclusive: 456%
Nc1nnnn1NCc1cccc(OCc2ccccc2)c1	inconclusive: 84.4%
CCN(CC)C(=O)Cc1cn(C)c2ccccc12	inconclusive: 567%
Nc1nnc(-c2ccccc2)c(-c2ccccc2)n1	inconclusive: 55.6%
COc1ccccc1CNC(=O)C(=O)NCC1CCCO1 (stereo not given)	inconclusive: 444%
CCOC(=O)C(=O)c1c(-c2ccccc2)nc2ccccn12	active: 450%
O=[N+]([O-])c1ccc(/C=N/N=C/c2ccc([N+](=O)[O-])o2)o1	inconclusive: 733% [cytotoxic]
Cc1cc(Cl)n2c(nc3ccccc32)c1C#N	inconclusive: 167%
Cc1nc(C)c(C(=O)Nc2cccc(Cl)c2)o1	inconclusive: 129%
Cc1cccc(NC(=S)N=Nc2c(O)n(C)c3ccc(S(=O)(=O)N4CCOCC4)cc23)c1	inconclusive: 300%
COCc1ccc(CN2CCc3c([nH]c4ccccc34)C2C(C)(C)C)o1 (stereo not given)	active: 231%
COc1ccc(C(=O)c2cc([N+](=O)[O-])ccc2N2CCOCC2)cc1	inconclusive: 257% [cytotoxic]
CCOC(=O)C1=C(C)NC2=C(C(=O)CC(C)(C)C2)C1c1coc2ccccc2c1=O (stereo not given)	inconclusive: 447%
O=C(Nc1ccc(NS(=O)(=O)c2ccccc2)cc1)c1cccnc1	inactive: 7.14%

Random excerpt: 5 compounds from above.
Structure (SMILES)	activation
Nc1nnc(-c2ccccc2)c(-c2ccccc2)n1	inconclusive: 55.6%
COCc1ccc(CN2CCc3c([nH]c4ccccc34)C2C(C)(C)C)o1 (stereo not given)	active: 231%
CCS(=O)(=O)NC(C)C(c1cccs1)N1CCN(c2ccc(OC)cc2)CC1 (stereo not given)	inconclusive: 167%
COc1ccccc1CNC(=O)C(=O)NCC1CCCO1 (stereo not given)	inconclusive: 444%
Cc1c(C(=O)N2CCOCC2)[nH]c2ccc(OCc3ccccc3)cc12	active: 104%

(more compounds)

Structure (SMILES)	activation
Cc1onc(C(=O)N2CCN(C(c3ccccc3)c3ccccc3)CC2)c1[N+](=O)[O-]	inconclusive: 400% [cytotoxic]
COc1ccccc1CNC(=O)C(C)NS(=O)(=O)c1ccc(Br)cc1 (stereo not given)	inconclusive: 494%
O=C(CCC1CCCCC1)NNC(=O)c1cnccn1	inactive: 2.78%
CCc1ccccc1N(C1=NCCCS1)S(=O)(=O)c1ccc(C(C)(C)C)cc1	inactive: 8.33%
COc1ccc(-n2cc(C(=O)c3cc4ccccc4oc3=O)c(C(C)=O)n2)cc1	inactive: 5.71%
CCc1ccc(NC(=O)CCCN2C(=S)NC(C)(C)CC2C)cc1 (stereo not given)	inconclusive: 209%
CCCn1nnc(NC(=O)COc2ccc(CC)cc2)n1	inconclusive: 427%
CC(C(=O)O/N=C(\N)c1cccnc1)c1ccc([N+](=O)[O-])cc1 (stereo not given)	inactive: 0%
CC1(C)Cc2c(C#N)c(SCC(=O)c3ccccc3)nc(N3CCCC3)c2CO1	inconclusive: 464%
CC12CS(=O)(=O)CC1SC(=S)N2c1ccccn1 (stereo not given)	inconclusive: 121%
COc1ccnc(CSC(N)=Nc2ccc(F)cc2)c1	inconclusive: 547%
CC(C)c1nc(CN2CCCCC2)cc(=O)[nH]1	inactive: 4.76%
O=C(CCNC(=O)c1ccccc1)Nc1ccc(F)c(Cl)c1	inactive: 6.12%
COc1cc(C2C3=C(CC(c4ccco4)CC3=O)Nc3ccccc3N2C(C)=O)cc(OC)c1OC (stereo not given)	inconclusive: 136%
CCOC(=O)c1[nH]c(C=O)c(C(=O)OCC)c1C	inconclusive: 364% [cytotoxic]
Nc1ccc(N2CCCCCC2)cc1	inconclusive: 129%
CSc1nnc(-c2cnccn2)n1CCCN1CCCC1=O	inactive: 6.06%
CCOC(=O)/C(C#N)=C/C=C1\C=Cc2ccccc2N1CC	inconclusive: 207%
O=C(Nc1ccc(N2CCCCC2)c(C(=O)O)c1)c1ccco1	inconclusive: 234%
CCn1ncc(CNC(=O)CCSc2nc(-c3ccco3)cc(C(F)(F)F)n2)c1C	inconclusive: 486%
O=C(O)c1cc(/C=N\O)ccc1OCc1ccccc1	inactive: 1.79%
Cc1cccc(NC(=O)Nc2ccc(C)c(C)c2)n1	inconclusive: 121%
CCn1ccc(C(=O)Nc2c(C)nn(Cc3c(F)c(F)c(F)c(F)c3F)c2C)n1	active: 364%
